# Measurements: the supplement of paper PMC12819154, “High-throughput peptide-centric local stability assay extends protein–ligand identification to membrane proteins, tissues and bacteria” (Nature Structural & Molecular Biology, 2025)
# By UniProt entry, the sequences of proteins in these tests, tags left out. Where a name states a change or a piece, a line headed by the entry shows the natural chain unless it says otherwise.
# UniProt P0AAR8: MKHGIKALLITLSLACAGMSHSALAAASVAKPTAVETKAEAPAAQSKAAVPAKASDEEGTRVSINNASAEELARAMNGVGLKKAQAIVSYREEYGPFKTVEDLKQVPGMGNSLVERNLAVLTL
# Only a part is listed here, and it is no random draw. Small differences around the control level are noise.
# Experiments:
# Experiment in all cases: log2 fold change of tryptic peptide abundance, ligand vs vehicle (limited proteolysis) (log2 ratio); higher = more trypsin-susceptible (destabilized)
# UniProt P0A908 = biological target: T1, UniProt P0A908; conditions: peptide sequence: DSGDHQMR; peptide start residue: 93; ligand concentration: 5 mM; sample: E. coli desalted lysate; replicate design: treated before aliquoting
# T1 sequence (whole entry): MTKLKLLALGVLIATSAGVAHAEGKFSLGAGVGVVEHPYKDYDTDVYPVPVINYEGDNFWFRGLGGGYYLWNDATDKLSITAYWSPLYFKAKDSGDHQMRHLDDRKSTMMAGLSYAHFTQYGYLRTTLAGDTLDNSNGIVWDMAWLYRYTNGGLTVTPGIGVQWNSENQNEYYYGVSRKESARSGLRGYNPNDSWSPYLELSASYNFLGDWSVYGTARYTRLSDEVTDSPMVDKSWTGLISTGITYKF
# Experimental: (§1)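 HT-PELSA: desalted E. coli K-12 BW25113 lysate (with 12 mM MgCl2) incubated with 5 mM ATP (pH 7) or water for 30 min at 25 C, then a 4 min trypsin pulse at 22 C. Peptides were quantified by DIA-MS (4 replicates). Value is the peptide log2 fold change (treated/control); negative = stabilized. Scale: negative = ligand-stabilized region.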
# UniProt P0A915 = biological target: T2, UniProt P0A915; conditions: peptide sequence: LGGAQQHDSVR; peptide start residue: 188; ligand concentration: 5 mM; sample: E. coli desalted lysate; replicate design: treated before aliquoting
# T2 sequence (whole entry): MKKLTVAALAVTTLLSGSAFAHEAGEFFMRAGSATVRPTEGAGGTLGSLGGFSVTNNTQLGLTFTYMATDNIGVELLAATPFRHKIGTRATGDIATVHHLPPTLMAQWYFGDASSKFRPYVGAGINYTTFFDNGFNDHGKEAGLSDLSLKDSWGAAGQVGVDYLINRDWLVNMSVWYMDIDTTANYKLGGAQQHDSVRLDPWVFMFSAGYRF
# Experimental: as §1
# UniProt P0A9C3 = biological target: T3, UniProt P0A9C3; conditions: peptide sequence: IPLSDGSVR; peptide start residue: 42; ligand concentration: 5 mM; sample: E. coli desalted lysate; replicate design: treated before aliquoting
# T3 sequence (whole entry): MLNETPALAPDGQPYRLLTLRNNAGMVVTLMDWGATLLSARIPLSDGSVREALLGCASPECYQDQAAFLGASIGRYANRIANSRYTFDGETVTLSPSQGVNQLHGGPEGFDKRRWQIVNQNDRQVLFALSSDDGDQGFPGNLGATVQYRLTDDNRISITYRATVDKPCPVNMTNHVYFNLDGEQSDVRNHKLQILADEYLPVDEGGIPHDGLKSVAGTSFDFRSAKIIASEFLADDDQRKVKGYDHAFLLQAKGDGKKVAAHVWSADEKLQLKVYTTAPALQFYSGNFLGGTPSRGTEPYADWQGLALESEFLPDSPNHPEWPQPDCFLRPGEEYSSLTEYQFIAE
# Experimental: as §1
# UniProt P0A9G4 = biological target: T4, UniProt P0A9G4; conditions: peptide sequence: HIEELQSMR; peptide start residue: 94; ligand concentration: 5 mM; sample: E. coli desalted lysate; replicate design: treated before aliquoting
# T4 sequence (whole entry): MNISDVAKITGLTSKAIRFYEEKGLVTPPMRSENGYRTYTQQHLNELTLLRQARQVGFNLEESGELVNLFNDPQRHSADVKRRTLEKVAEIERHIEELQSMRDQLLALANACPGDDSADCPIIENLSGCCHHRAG
# Experimental: as §1
# UniProt P0A9V8 = biological target: T5, UniProt P0A9V8; conditions: peptide sequence: VFDVNAEAVR; peptide start residue: 29; ligand concentration: 5 mM; sample: E. coli desalted lysate; replicate design: treated before aliquoting
# T5 sequence (whole entry): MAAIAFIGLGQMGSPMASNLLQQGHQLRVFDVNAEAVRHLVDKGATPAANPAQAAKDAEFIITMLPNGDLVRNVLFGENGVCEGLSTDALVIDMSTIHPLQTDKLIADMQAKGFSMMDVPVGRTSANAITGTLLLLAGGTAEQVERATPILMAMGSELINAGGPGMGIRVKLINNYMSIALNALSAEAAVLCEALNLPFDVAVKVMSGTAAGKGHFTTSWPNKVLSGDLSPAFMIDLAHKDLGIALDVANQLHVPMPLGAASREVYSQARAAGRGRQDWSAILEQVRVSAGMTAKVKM
# Experimental: as §1
# UniProt P0A9W9 = biological target: T6, UniProt P0A9W9; conditions: peptide sequence: GDVHYVQIGAR; peptide start residue: 47; ligand concentration: 5 mM; sample: E. coli desalted lysate; replicate design: treated before aliquoting
# T6 sequence (whole entry): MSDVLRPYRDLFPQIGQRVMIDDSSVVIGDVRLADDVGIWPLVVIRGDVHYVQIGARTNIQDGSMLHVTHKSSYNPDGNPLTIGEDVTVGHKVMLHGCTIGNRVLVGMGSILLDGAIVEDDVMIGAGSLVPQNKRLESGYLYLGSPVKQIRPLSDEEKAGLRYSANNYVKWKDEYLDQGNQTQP
# Experimental: as §1
# UniProt P0AA80 = biological target: T7, UniProt P0AA80; conditions: peptide sequence: FISENGAVVDMDHK; peptide start residue: 215; ligand concentration: 5 mM; sample: E. coli desalted lysate; replicate design: treated before aliquoting
# T7 sequence (whole entry): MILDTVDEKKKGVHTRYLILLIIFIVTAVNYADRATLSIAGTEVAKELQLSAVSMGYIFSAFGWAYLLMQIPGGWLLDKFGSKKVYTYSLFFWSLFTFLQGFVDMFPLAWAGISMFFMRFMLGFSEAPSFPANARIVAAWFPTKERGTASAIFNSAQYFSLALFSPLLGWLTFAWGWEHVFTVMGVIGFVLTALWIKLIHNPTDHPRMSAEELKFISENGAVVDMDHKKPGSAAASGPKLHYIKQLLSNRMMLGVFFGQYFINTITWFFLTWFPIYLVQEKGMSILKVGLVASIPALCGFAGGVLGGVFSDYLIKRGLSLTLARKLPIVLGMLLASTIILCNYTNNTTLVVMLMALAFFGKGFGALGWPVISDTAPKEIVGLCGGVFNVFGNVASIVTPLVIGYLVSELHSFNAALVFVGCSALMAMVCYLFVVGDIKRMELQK
# Experimental: as §1
# UniProt P0AAC8 = biological target: T8, UniProt P0AAC8; conditions: peptide sequence: EGLNEGFK; peptide start residue: 82; ligand concentration: 5 mM; sample: E. coli desalted lysate; replicate design: treated before aliquoting
# T8 sequence (whole entry): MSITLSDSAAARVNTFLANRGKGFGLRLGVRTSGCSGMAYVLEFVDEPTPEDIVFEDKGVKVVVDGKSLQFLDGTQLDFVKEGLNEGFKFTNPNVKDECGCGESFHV
# Experimental: as §1
# UniProt P0AAJ3 = biological target: T9, UniProt P0AAJ3; conditions: peptide sequence: VYKCTLCVDR; peptide start residue: 157; ligand concentration: 5 mM; sample: E. coli desalted lysate; replicate design: treated before aliquoting
# T9 sequence (whole entry): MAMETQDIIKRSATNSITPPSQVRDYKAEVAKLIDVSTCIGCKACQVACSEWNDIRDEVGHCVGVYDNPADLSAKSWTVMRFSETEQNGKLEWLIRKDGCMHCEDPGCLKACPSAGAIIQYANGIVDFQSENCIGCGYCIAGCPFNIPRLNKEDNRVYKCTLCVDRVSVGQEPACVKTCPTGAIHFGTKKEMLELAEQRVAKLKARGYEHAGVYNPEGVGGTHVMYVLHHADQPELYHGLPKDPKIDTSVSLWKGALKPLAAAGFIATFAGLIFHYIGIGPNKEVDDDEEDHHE
# Experimental: as §1
# UniProt P0AAK1 = biological target: T10, UniProt P0AAK1; conditions: peptide sequence: APPAPPAPAR; peptide start residue: 116; ligand concentration: 5 mM; sample: E. coli desalted lysate; replicate design: treated before aliquoting
# T10 sequence (whole entry): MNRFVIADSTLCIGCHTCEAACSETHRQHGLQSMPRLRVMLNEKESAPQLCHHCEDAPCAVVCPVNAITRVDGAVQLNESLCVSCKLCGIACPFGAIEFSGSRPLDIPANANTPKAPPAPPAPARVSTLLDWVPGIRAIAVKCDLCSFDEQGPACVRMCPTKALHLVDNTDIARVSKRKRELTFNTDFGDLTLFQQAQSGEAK
# Experimental: as §1
# UniProt P0AAR8 = conditions: peptide sequence: QVPGMGNSLVER; peptide start residue: 105; ligand concentration: 5 mM; sample: E. coli desalted lysate; replicate design: treated before aliquoting
# Experimental: as §1
# UniProt P0AAS3 = biological target: T11, UniProt P0AAS3; conditions: peptide sequence: HSDSHLNQR; peptide start residue: 84; ligand concentration: 5 mM; sample: E. coli desalted lysate; replicate design: treated before aliquoting
# T11 sequence (whole entry): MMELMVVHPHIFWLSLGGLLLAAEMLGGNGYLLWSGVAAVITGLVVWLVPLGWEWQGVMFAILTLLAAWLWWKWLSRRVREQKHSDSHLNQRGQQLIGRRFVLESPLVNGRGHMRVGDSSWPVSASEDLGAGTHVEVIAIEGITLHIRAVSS
# Experimental: as §1
# UniProt P0AAV6 = biological target: T12, UniProt P0AAV6; conditions: peptide sequence: NTMCKDGR; peptide start residue: 92; ligand concentration: 5 mM; sample: E. coli desalted lysate; replicate design: treated before aliquoting
# T12 sequence (whole entry): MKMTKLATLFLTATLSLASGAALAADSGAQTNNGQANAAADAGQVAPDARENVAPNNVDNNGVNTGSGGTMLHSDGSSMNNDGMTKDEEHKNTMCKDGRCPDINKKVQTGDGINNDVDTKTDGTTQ
# Experimental: as §1
# UniProt P0AB24 = biological target: T13, UniProt P0AB24; conditions: peptide sequence: EDDYEQK; peptide start residue: 201; ligand concentration: 5 mM; sample: E. coli desalted lysate; replicate design: treated before aliquoting
# T13 sequence (whole entry): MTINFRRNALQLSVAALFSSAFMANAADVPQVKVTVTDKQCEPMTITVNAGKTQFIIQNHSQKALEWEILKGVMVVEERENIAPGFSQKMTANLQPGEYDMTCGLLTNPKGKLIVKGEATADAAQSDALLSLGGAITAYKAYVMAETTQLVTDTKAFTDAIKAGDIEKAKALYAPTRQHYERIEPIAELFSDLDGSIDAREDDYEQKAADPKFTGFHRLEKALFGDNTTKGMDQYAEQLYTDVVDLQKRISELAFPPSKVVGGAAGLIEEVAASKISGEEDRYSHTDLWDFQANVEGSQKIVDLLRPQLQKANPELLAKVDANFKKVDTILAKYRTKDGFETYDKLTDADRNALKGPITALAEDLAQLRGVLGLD
# Experimental: as §1
# UniProt P0AB26 = biological target: T14, UniProt P0AB26; conditions: peptide sequence: ALPVFDKEK; peptide start residue: 100; ligand concentration: 5 mM; sample: E. coli desalted lysate; replicate design: treated before aliquoting
# T14 sequence (whole entry): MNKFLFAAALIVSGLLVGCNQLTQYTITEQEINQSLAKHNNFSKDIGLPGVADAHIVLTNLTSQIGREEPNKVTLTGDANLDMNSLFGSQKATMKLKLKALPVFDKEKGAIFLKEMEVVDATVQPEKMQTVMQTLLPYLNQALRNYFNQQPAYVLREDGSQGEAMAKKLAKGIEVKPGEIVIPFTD
# Experimental: as §1
# 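Also: lysate desalted by size exclusion to strip endogenous ATP, peptide intensities built from DIA-NN precursor signals, and peptides missing any value discarded before comparison.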
structure (smiles),measurement,setting,value
Nc1ncnc2c1ncn2[C@@H]1O[C@H](COP(=O)(O)OP(=O)(O)OP(=O)(O)O)[C@@H](O)[C@H]1O [adenosine 5'-triphosphate],log2 fold change,UniProt P0A908,-0.228
same,log2 fold change,UniProt P0A915,0.139
same,log2 fold change,UniProt P0A9C3,0.378
same,log2 fold change,UniProt P0A9G4,-0.282
same,log2 fold change,UniProt P0A9V8,-0.427
same,log2 fold change,UniProt P0A9W9,-0.363
same,log2 fold change,UniProt P0AA80,0.287
same,log2 fold change,UniProt P0AAC8,-0.103
same,log2 fold change,UniProt P0AAJ3,-0.414
same,log2 fold change,UniProt P0AAK1,0.0413
same,log2 fold change,UniProt P0AAR8,-0.219
same,log2 fold change,UniProt P0AAS3,-0.179
same,log2 fold change,UniProt P0AAV6,-0.271
same,log2 fold change,UniProt P0AB24,-0.389
same,log2 fold change,UniProt P0AB26,-0.24

# Exported with tabs: part of the list above.
structure (smiles)	measurement	setting	value
Nc1ncnc2c1ncn2[C@@H]1O[C@H](COP(=O)(O)OP(=O)(O)OP(=O)(O)O)[C@@H](O)[C@H]1O [adenosine 5'-triphosphate]	log2 fold change	UniProt P0A915	0.139
same	log2 fold change	UniProt P0AAV6	-0.271
